# Primary screen of a compound library

Data taken from ChEMBL document CHEMBL3988442, “University of Dundee, Small-Polar-MMV Screening Library” (2021).

The filed quantity is “Percent Effect” (%).
The record does not define 0% and 100%; most values in the screen are far below 50% and negative numbers occur (in some assays of this library far below -100).
Compounds were drawn at random from those tested, without regard to their results.
Two or more numbers in one place are separate tests of the same structure; such repeats can differ widely.

Mtb glucose medium: 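Phenotypic screen: M. tuberculosis growth, glucose 7H9 medium, 3 days; the read-out is not stated. Tested at 50 µM. Direction is inferred from retests: higher values go with more growth inhibition. About 69,000 compounds were tested under these conditions; 1.1% (about 760) showed 50% or more at least once.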
Mtb cholesterol medium: 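Whole-cell growth test on Mycobacterium tuberculosis, read after 4 days in a medium based on cholesterol and the lipid DPPC; the read-out is not stated. Compounds at 50 µM. Higher reads as more growth inhibition (inferred: compounds with an IC50 in retests scored well above the rest). About 69,000 compounds were tested under these conditions; 0.54% (about 370) showed 50% or more at least once.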

c1ccc(NCc2ccc(Cn3ccnc3)cc2)nc1 gave Mtb glucose medium: 13.03%; Mtb cholesterol medium: 12.78%.
Cn1cc(CCNC(=O)NCc2ccc3c(c2)OCCO3)cn1 gave Mtb glucose medium: -33.99%; Mtb cholesterol medium: -22.85%.
NC(=O)NCC1CCCCN1Cc1nc(-c2ccco2)no1 (stereo unspecified) gave Mtb glucose medium: -21.76%; Mtb cholesterol medium: 1.677%.
O=C(O)C(F)(F)F.O=C(O)C(F)(F)F.[H][C@]12CCC[C@@]1(COc1ccccn1)CN(Cc1cnn(C)c1)C2 gave Mtb glucose medium: -20.03%; Mtb cholesterol medium: 0.2381%.
CC[C@@]1(O)CCN(c2ncc(Cl)cc2C(F)(F)F)C[C@H]1O gave Mtb glucose medium: -8.225%; Mtb cholesterol medium: -18.21%.
Cc1cc(C)n(CC(=O)N2CCC(NS(=O)(=O)c3ccccc3)CC2)n1 gave Mtb glucose medium: 6.538%; Mtb cholesterol medium: 1.949%.
Cc1ncsc1-c1nnc(C2CCN(Cc3ccccc3F)CC2)o1 gave Mtb glucose medium: 14.91%; Mtb cholesterol medium: -1.865%.
COc1cc(CNCCc2nc(C)cs2)cc2c1OCCO2.Cl gave Mtb glucose medium: 14.85%; Mtb cholesterol medium: 16.95%.
[H][C@]12CN(c3ccnc(N)n3)CC[C@@]1(O)CCN(S(C)(=O)=O)C2 gave Mtb glucose medium: -17.16% & 2.708%; Mtb cholesterol medium: -12.53%.
O=C(c1ccc(=O)[nH]n1)N1CCCC1C1CCCC1 (stereo unspecified) gave Mtb glucose medium: -1.947%; Mtb cholesterol medium: 12.18% & -0.808%.
Cc1cn2c(=O)c(-c3ccnc(N4CCC[C@@H]4CO)n3)cnc2s1 gave Mtb glucose medium: 19.56%; Mtb cholesterol medium: 4.311%.
CCCc1nc(N[C@H]2COC[C@@H]2N2CCCCC2)c2cnn(C)c2n1 gave Mtb glucose medium: -15.76%; Mtb cholesterol medium: -15.62%.
Cc1nc(C(=O)N2CCCC2c2c(C)nn(C)c2C)cs1 (stereo unspecified) gave Mtb glucose medium: 2.466%; Mtb cholesterol medium: -9.595%.
Cc1cccc(-c2noc(Cn3nc(C(N)=O)ccc3=O)n2)c1 gave Mtb glucose medium: -13.5%; Mtb cholesterol medium: -14.63%.
Cn1ccnc1CN1CCCN(C(=O)c2ccc(O)nc2)CC1 gave Mtb glucose medium: -14.31%; Mtb cholesterol medium: -6.914%.
[H][C@@]12CN(C(C)=O)CCO[C@]1([H])CN(S(=O)(=O)c1ccccc1F)C2 gave Mtb glucose medium: 7.665% & -1.008%; Mtb cholesterol medium: 9.656%.
CCn1ncc2c1CCCC2NCc1csc(COC)n1 (stereo unspecified) gave Mtb glucose medium: 1.621%; Mtb cholesterol medium: 0.9188%.
CC(NC(=O)CCc1nc(-c2nnc[nH]2)no1)c1ccc(F)cc1F (stereo unspecified) gave Mtb glucose medium: -0.9784% & 6.463%; Mtb cholesterol medium: -20.15%.
NC(=O)NC(=O)CNC1(c2ccc(Cl)cc2)CCCC1 gave Mtb glucose medium: 2.358%; Mtb cholesterol medium: -17.74%.
NC(=O)NC(=O)CCn1ccc(-c2ccc(F)cc2)n1 gave Mtb glucose medium: 8.977% & -6.43%; Mtb cholesterol medium: 0.2874%.
[H][C@]12CC[C@]([H])(CN(C(=O)c3ccccn3)C1)N(C(=O)Cc1cccs1)C2 gave Mtb glucose medium: -25.95%; Mtb cholesterol medium: 0.8573% & -7.702%.
COCCNC(=O)Cn1ccc2sc(C)cc2c1=O gave Mtb glucose medium: 7.368%; Mtb cholesterol medium: -8.006%.
Cc1ncsc1-c1nnc(C2CCN(Cc3ccccc3)CC2)o1 gave Mtb glucose medium: -5.284%; Mtb cholesterol medium: -1.984%.
Cc1cccc(CN2CCOCC3(CCN(C4CCOCC4)C3)C2)n1.O=C(O)C(F)(F)F.O=C(O)C(F)(F)F.O=C(O)C(F)(F)F (stereo unspecified) gave Mtb glucose medium: -28.07%; Mtb cholesterol medium: -5.654%.
CN(C)c1cc(C(=O)N2CCN(c3cc(C#N)ccn3)CC2)ccn1 gave Mtb glucose medium: -1.85%; Mtb cholesterol medium: 0.6828%.
CC(C)CC(=O)Nc1c(-c2ccc(F)cc2)ncn1C gave Mtb glucose medium: 29.18% & -3.197%; Mtb cholesterol medium: 6.4%.
COCc1nc(C)cc(Nc2ccc3c(c2)CC(=O)N3)n1 gave Mtb glucose medium: -2.949%; Mtb cholesterol medium: 9.38% & 3.282%.
COc1ccc(CCC(=O)N(C)CCN2CCOCC2)cc1OC gave Mtb glucose medium: -3.84%; Mtb cholesterol medium: -1.685%.
COc1ccccc1NC(=O)CCNC(=O)c1ccoc1 gave Mtb glucose medium: -13.95%; Mtb cholesterol medium: -5.869%.
CN1CC(C(=O)NCCc2ccn(-c3ccc(F)cc3)n2)CC1=O (stereo unspecified) gave Mtb glucose medium: -2.586%; Mtb cholesterol medium: -1.462% & -5.063%.
COCc1cccc(C(=O)N2CCCN(C(=O)OCC(C)C)CC2)c1 gave Mtb glucose medium: 3.199% & 29.81%; Mtb cholesterol medium: -1.445%.
O=C(O)C(F)(F)F.O=C(O)C(F)(F)F.O=C(O)C(F)(F)F.[H][C@@]12CCCO[C@]1([H])[C@H](N(CC)CC)CN2Cc1nccn1C gave Mtb glucose medium: -15.47% & -16.71%; Mtb cholesterol medium: -11.53%.
O=C(O)C(F)(F)F.[H][C@@]12C[C@@H](C(=O)NC)N(C(C)C)[C@]1([H])CN(C(=O)c1ccco1)C2 gave Mtb glucose medium: -5.056%; Mtb cholesterol medium: -23.3%.
CC(=O)N1CCC2(C1)CN(S(=O)(=O)c1ccccc1)C2 gave Mtb glucose medium: -2.725%; Mtb cholesterol medium: 0.7528%.
CCn1cc(N2Cc3nc(N4CCC(O)CC4)ncc3C2=O)cn1 gave Mtb glucose medium: 2.653%; Mtb cholesterol medium: -14.44%.
O=C(NS(=O)(=O)c1ccc(Cl)cc1F)c1cccc2c1OCCO2 gave Mtb glucose medium: -12.96%; Mtb cholesterol medium: -0.2798%.
CCCN(CC(=O)N(C)C)C(=O)c1ccc(-c2nc(C)cs2)cc1 gave Mtb glucose medium: -6.035%; Mtb cholesterol medium: 14.76%.
Cc1cc(NC(=O)NCCc2cccnc2)n(C)n1 gave Mtb glucose medium: -28.1%; Mtb cholesterol medium: -39.13%.
CCOCc1cnc2n1CCN(Cc1nc(C)cs1)C2C.O=C(O)C(F)(F)F (stereo unspecified) gave Mtb glucose medium: 13.64%; Mtb cholesterol medium: -4.878%.
O=C(O)c1cc(C2=CCCCC2)cc(S(=O)(=O)NCc2ccccn2)c1 gave Mtb glucose medium: -4.4%; Mtb cholesterol medium: 1.856%.
O=C(c1ccc2c(c1)OCCCO2)N1CCCC(n2ccnc2)C1 (stereo unspecified) gave Mtb glucose medium: -3.66%; Mtb cholesterol medium: -21.14%.
CCCn1cc2c(C(F)F)cc(SCC(=O)O)nc2n1 gave Mtb glucose medium: 23.92%; Mtb cholesterol medium: 7.246%.
CC(C)COc1cncc(NCC(O)c2ccco2)n1 (stereo unspecified) gave Mtb glucose medium: -21.23%; Mtb cholesterol medium: 1.429%.
CCc1ncc(C(=O)N2CC(N3CCCCC3)C2)cn1 gave Mtb glucose medium: -30.97%; Mtb cholesterol medium: -25.78%.